Results are given in words; binding and its absence hold for the method and conditions named. Binding seen in cells or lysates may run through a third protein. Some entries that bind do so weakly or less than the wild type.
Target: cytosolic chaperonin containing TCP-1 (CCT), endogenous (human (endogenous in HEK-293T)) (UniProt P17987)
Assay: co-IP; HEK-293T cells transfected with the named protein; lysis in PBS with 0.3–0.5% CHAPS; immunoprecipitation of the transfected protein (epitope tag antibody) or of endogenous CCT (CCT5), protein A/G agarose, immunoblot

Protein sequences, listed by entry. Tags and fused reporters are not part of them. Lines headed by an entry give the natural chain unless they say otherwise; changes in a name come on top.
UniProt P17987: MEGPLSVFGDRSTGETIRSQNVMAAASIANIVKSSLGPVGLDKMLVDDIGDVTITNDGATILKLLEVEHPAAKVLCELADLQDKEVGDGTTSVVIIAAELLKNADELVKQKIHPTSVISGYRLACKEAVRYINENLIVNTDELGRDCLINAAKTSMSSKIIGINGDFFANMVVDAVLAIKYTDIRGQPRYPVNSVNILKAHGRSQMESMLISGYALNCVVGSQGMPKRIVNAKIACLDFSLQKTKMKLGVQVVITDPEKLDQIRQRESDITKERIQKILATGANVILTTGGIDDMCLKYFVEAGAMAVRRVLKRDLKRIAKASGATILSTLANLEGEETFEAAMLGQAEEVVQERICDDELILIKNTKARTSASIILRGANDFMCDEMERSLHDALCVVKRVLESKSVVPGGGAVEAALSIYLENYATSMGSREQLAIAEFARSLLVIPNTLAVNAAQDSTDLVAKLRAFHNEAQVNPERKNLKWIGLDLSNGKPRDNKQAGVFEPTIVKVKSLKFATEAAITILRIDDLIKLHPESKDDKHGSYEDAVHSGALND
UniProt Q8N122: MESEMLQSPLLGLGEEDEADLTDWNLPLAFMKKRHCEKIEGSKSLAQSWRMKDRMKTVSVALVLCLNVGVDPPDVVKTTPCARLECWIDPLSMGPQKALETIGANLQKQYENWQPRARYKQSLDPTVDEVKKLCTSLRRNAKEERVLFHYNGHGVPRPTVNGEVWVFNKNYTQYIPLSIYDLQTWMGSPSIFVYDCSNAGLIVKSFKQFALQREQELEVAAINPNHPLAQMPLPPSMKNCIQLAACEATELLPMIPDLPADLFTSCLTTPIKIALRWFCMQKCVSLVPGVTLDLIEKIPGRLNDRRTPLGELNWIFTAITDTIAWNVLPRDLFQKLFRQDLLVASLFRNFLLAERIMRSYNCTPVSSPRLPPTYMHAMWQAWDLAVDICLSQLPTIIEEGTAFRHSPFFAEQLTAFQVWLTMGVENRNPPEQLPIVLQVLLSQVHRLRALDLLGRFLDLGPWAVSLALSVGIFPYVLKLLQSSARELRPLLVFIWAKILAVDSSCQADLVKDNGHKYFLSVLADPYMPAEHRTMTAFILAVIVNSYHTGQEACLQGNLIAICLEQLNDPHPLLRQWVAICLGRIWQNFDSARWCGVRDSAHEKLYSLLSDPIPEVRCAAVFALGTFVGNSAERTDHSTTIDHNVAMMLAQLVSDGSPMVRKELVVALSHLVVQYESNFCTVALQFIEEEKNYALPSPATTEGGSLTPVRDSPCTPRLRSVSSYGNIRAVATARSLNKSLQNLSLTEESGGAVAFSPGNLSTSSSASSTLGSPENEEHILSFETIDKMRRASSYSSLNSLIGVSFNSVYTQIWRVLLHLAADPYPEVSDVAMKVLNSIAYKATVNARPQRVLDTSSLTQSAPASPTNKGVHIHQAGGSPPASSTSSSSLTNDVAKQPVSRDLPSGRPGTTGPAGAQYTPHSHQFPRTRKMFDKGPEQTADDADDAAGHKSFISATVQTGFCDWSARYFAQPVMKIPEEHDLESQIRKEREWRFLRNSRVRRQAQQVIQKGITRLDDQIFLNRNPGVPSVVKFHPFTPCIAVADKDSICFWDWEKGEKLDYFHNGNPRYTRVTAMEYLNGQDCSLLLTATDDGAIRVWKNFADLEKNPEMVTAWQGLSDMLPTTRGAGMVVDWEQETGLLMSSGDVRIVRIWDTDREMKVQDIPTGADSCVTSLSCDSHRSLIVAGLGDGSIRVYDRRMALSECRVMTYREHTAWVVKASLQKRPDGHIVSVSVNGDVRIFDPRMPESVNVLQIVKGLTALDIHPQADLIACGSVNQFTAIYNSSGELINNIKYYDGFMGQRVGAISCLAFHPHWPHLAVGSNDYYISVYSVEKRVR

Row | binding | Substance
1 | binds | Raptor C-terminal β-propeller (residues 1000–1335), HA-tagged (from UniProt Q8N122 1000-1335) (domain or fragment)
2 | no binding | Raptor N-terminal caspase homology and armadillo repeat domains (residues 1–999), HA-tagged (from UniProt Q8N122 1-999) (domain or fragment)
3 | binds | regulatory associated protein of mTOR (Raptor), full length, HA-tagged (from UniProt Q8N122 1-1335)

Source: paper PMC6599039, “Structural and functional analysis of the role of the chaperonin CCT in mTOR complex assembly” (Nature Communications, 2019)
